PubChem BioAssay AID1159578 | Peter MacCallum Cancer Centre – 2015
Shown is one part, drawn at random, of about 18,000 deposited reagents. Over the whole deposit, about 1,030 (5.7%) got an active call. 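Inactive calls also include pools with fewer than 3300 nuclei, whose migration was not assessed.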 The raw values are shown without normalisation. Entries without a mark were called inactive.

Aim: 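Knock-downs that alter how fast lymphatic endothelial cells migrate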 (primary screen)
Cells: human lymphatic endothelial cells
Reagent: siRNA pool against human genes, 40 nM
Timing: 48 h after transfection
Measurement: 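High-content imaging of dye-stained cells in a scratch assay measures filled wound area and nuclei per well; duplicate means given as ratio to mock and robust z-score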
Reading the numbers: migration robust z-score: higher = faster migration into the scratch; migration relative to mock: higher = more scratch area covered than mock; nuclei per well: higher = more cells in the well
Hit rule: 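Pools averaging fewer than 3300 nuclei are never called; remaining pools count as changed when migration robust z lies outside -2 to 2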
Calls: active = migration changed; inactive = no migration change, or too few cells

migration robust z-score	migration class with cell-count check	migration relative to mock	nuclei per well, duplicate mean	target
0.7	migration z between -2 and 2; enough cells	0.94	4638	DMRT3
-0.9	migration z between -2 and 2; enough cells	0.63	3455	POT1
-0.44	migration z between -2 and 2; enough cells	0.77	6874	KRCC1
0.2	migration z between -2 and 2; enough cells	0.94	5880	NEFM
-1.27	migration z between -2 and 2; enough cells	0.56	3473	TTLL11
0.31	migration z between -2 and 2; enough cells	0.86	4372	ERCC1
-0.29	migration z between -2 and 2; enough cells	0.82	6358	TAS2R31
0.83	migration z between -2 and 2; enough cells	0.96	5266	KIF5A
-0.72	migration z between -2 and 2; enough cells	0.7	5700	SPRY2
0.8	migration z between -2 and 2; enough cells	0.96	5482	USP14
-0.98	migration z between -2 and 2; enough cells	0.64	4918	ZNF383
1.06	migration z between -2 and 2; enough cells	1.16	6864	HNRNPR
0.42	migration z between -2 and 2; enough cells	0.88	6819	HSD17B3
-0.65	migration z between -2 and 2; enough cells	0.72	6038	MED11
-0.34	migration z between -2 and 2; enough cells	0.74	6360	TRIM68
-0.54	migration z between -2 and 2; enough cells	0.74	5784	ZBTB37
1.07	migration z between -2 and 2; enough cells	1.17	5937	LCE1E
0.88	migration z between -2 and 2; enough cells	1.11	5886	GNL3L
0.26	migration z between -2 and 2; enough cells	0.86	5382	CWC27
-0.11	migration z between -2 and 2; enough cells	0.86	4935	MSI2
-0.66	migration z between -2 and 2; enough cells	0.71	5258	SNAP29
-2.26 (active)	migration z below -2; enough cells	0.3	5812	HOMEZ
1.7	migration z between -2 and 2; enough cells	1.33	6018	CSPG5
1.19	migration z between -2 and 2; enough cells	1.19	5381	DUSP29
0.67	migration z between -2 and 2; enough cells	0.93	5392	ZFYVE9
0.44	migration z between -2 and 2; enough cells	0.89	6784	NDUFA10
1.07	migration z between -2 and 2; enough cells	1.17	5802	WBP1L
1.2	migration z between -2 and 2; enough cells	1.04	6677	HLA-DOA
-1.04	migration z between -2 and 2; enough cells	0.6	5235	SLC25A4
-1.79	migration z between -2 and 2; enough cells	0.46	4402	ERBB4
0.03	migration z between -2 and 2; enough cells	0.81	5507	GATA4
0.96	migration z between -2 and 2; enough cells	0.99	6867	RAD1
0.22	migration z between -2 and 2; enough cells	0.94	6046	RAB11FIP3
-0.62	migration z between -2 and 2; enough cells	0.68	5410	CPA4
-0.52	migration z between -2 and 2; enough cells	0.7	5255	ERP44
-1.92	migration z between -2 and 2; enough cells	0.44	4462	HYAL1
0.47	migration z between -2 and 2; enough cells	0.89	5110	ATG4B
0.41	migration z between -2 and 2; enough cells	0.99	5594	DPCD
-3.63	under 3300 nuclei; migration not judged	0.1	2956	CDADC1
0.4	migration z between -2 and 2; enough cells	0.99	6803	MYL6B
-0.16	migration z between -2 and 2; enough cells	0.77	3608	SP7
0.7	migration z between -2 and 2; enough cells	1.07	6985	TMEM225
0.8	migration z between -2 and 2; enough cells	1.1	5825	KAT14
-1.51	migration z between -2 and 2; enough cells	0.5	3891	VCY1B
0.5	migration z between -2 and 2; enough cells	1.02	5768	ETV2
-0.1	migration z between -2 and 2; enough cells	0.86	5742	LRRC49
-0.24	migration z between -2 and 2; enough cells	0.76	4690	BATF3
0.08	migration z between -2 and 2; enough cells	0.82	4996	GLP1R
-0.56	migration z between -2 and 2; enough cells	0.74	6914	HAPSTR1
0.21	migration z between -2 and 2; enough cells	0.84	5770	PREP
-1.27	migration z between -2 and 2; enough cells	0.56	3751	CNTNAP1
1.25	migration z between -2 and 2; enough cells	1.04	5971	NR2F1
1.81	migration z between -2 and 2; enough cells	1.35	5412	PENK
-0.04	migration z between -2 and 2; enough cells	0.88	5269	WIPF1
-0.8	migration z between -2 and 2; enough cells	0.68	7174	RBFOX1
1.27	migration z between -2 and 2; enough cells	1.05	5440	HEMK2
-0.29	migration z between -2 and 2; enough cells	0.75	5994	RAB33B
0.88	migration z between -2 and 2; enough cells	0.98	5364	ITGA6
-1.12	migration z between -2 and 2; enough cells	0.59	6394	NRG2
0.12	migration z between -2 and 2; enough cells	0.92	5402	PLEKHB2
-0.34	migration z between -2 and 2; enough cells	0.8	5772	OR5I1
-0.78	migration z between -2 and 2; enough cells	0.66	5476	NSDHL
0.5	migration z between -2 and 2; enough cells	1.02	5244	TIMM17B
-0.13	migration z between -2 and 2; enough cells	0.78	5706	PAWR
0.8	migration z between -2 and 2; enough cells	0.96	5147	TAF6
-0.9	migration z between -2 and 2; enough cells	0.64	5248	C12orf42
-1.8	under 3300 nuclei; migration not judged	0.41	2867	USB1
-1.45	migration z between -2 and 2; enough cells	0.51	5294	ERP27
1.02	migration z between -2 and 2; enough cells	1.15	4922	NOPCHAP1
0.54	migration z between -2 and 2; enough cells	1.02	6426	UBR7
0	migration z between -2 and 2; enough cells	0.88	6768	ZC3H12B
-0.02	migration z between -2 and 2; enough cells	0.88	5977	IGSF1
0.78	migration z between -2 and 2; enough cells	0.96	4522	HHAT

An excerpt from above, limited to “nuclei per well, duplicate mean”.
HEMK2	5440
RAB33B	5994
ITGA6	5364
NRG2	6394
PLEKHB2	5402
OR5I1	5772
NSDHL	5476
TIMM17B	5244
PAWR	5706
TAF6	5147
C12orf42	5248
